Experimental data: publication PMC6052109
These are yes or no findings as the source states them, for the method shown. In cells and extracts the contact can be indirect. Some results given as binding are weak or reduced against the parent protein; the word gives no strength. For some assays here: Where a sequence is shown, tags or fusion partners need not be part of it. One block for each molecule: values may come before it.

Sequences of proteins named here, by UniProt entry; tags and fusion partners are left off. A change or cut given only in a name is not applied to a line headed by its entry. A line that says so, or that is headed by a name, gives the form on record, which may keep a tag or linker.
UniProt Q8TDY2: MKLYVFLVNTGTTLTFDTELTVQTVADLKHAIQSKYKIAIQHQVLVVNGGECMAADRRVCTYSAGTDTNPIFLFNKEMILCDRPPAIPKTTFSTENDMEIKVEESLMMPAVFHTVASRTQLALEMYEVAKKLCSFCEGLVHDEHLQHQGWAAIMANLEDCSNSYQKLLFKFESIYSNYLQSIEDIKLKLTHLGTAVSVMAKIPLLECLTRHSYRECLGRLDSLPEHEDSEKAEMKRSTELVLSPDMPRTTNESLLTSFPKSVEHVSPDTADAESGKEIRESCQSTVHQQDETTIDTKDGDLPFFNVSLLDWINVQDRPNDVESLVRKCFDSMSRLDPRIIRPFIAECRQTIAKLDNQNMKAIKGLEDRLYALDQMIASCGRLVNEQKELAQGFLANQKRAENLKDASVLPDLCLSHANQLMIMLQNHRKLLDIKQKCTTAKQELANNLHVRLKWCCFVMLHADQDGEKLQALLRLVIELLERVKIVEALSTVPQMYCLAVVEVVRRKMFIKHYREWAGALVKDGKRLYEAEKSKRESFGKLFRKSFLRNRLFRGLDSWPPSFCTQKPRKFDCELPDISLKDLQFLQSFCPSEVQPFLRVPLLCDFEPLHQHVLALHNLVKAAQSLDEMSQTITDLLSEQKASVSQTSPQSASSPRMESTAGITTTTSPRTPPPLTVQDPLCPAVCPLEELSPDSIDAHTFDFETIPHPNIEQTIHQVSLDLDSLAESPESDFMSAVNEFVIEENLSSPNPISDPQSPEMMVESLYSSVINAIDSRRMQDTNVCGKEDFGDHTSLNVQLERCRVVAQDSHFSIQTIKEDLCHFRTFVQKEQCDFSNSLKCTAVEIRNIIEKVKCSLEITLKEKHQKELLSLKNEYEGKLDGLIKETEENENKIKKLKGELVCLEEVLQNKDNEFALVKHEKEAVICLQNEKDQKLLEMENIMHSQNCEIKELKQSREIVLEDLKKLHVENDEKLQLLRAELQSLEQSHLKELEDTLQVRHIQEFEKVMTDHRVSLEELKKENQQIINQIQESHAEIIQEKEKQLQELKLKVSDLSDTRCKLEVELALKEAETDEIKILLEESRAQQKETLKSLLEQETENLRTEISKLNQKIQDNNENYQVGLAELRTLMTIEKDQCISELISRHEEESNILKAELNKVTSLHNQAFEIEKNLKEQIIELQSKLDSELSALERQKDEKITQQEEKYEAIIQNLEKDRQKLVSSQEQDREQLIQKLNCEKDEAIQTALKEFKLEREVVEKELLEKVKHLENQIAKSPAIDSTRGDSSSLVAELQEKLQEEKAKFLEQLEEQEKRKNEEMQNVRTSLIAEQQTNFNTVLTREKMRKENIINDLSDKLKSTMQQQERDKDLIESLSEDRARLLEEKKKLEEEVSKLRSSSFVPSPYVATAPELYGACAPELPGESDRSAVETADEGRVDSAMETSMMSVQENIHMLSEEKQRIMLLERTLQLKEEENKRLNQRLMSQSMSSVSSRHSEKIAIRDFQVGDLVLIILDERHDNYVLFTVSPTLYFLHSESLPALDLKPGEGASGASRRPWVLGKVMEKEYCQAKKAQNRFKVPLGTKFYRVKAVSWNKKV
UniProt Q9ESK9: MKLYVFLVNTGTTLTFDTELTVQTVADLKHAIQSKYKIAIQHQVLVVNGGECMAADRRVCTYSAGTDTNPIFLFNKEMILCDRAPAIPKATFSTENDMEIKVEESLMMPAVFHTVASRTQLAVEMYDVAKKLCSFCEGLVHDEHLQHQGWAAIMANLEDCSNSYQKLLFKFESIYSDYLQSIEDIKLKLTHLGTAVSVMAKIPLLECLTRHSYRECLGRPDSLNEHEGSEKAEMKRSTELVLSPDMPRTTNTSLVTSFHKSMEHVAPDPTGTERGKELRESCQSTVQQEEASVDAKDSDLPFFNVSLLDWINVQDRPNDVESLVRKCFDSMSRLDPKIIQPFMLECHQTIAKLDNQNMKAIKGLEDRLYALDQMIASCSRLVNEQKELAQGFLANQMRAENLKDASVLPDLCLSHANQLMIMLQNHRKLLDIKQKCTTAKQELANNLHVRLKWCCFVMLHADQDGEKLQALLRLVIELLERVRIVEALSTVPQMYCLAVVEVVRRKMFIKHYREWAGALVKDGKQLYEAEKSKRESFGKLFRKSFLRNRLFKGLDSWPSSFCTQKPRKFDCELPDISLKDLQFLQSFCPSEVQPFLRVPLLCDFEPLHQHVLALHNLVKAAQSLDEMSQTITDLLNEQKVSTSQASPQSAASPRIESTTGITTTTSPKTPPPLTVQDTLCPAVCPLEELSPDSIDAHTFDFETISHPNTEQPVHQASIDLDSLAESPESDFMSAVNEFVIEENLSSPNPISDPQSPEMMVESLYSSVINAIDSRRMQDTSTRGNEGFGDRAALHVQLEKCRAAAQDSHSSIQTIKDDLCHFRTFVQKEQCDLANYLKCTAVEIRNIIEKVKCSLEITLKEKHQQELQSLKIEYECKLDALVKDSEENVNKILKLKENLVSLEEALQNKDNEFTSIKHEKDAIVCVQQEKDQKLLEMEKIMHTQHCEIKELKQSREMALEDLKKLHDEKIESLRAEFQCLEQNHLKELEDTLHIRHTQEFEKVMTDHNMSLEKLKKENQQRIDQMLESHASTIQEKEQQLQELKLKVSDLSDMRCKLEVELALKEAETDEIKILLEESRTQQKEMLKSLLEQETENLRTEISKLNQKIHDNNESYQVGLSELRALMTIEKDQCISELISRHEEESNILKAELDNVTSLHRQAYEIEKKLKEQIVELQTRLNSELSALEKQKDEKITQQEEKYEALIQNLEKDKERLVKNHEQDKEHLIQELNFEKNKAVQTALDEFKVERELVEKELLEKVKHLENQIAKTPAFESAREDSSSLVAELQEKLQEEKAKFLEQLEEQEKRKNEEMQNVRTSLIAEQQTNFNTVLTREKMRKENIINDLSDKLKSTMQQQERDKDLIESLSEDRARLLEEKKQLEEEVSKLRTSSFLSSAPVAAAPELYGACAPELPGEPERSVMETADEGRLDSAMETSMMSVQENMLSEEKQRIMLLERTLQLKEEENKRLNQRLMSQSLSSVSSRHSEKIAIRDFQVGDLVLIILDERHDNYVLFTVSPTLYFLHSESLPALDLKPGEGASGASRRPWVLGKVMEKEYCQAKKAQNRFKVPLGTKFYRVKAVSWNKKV
HA-Tbkbp1 1-330 (truncation mutant) (A2A9T0-2, form named): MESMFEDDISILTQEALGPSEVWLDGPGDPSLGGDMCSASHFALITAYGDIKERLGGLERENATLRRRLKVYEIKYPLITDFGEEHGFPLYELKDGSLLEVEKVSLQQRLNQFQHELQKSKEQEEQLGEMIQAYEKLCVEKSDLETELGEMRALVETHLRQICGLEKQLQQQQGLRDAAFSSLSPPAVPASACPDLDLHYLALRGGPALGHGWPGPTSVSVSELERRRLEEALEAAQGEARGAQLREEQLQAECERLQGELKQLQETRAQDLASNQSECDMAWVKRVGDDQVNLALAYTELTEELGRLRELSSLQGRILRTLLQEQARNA
HA-Tbkbp1 (TBK-binding protein 1, mouse, wild type) (A2A9T0-2, form named): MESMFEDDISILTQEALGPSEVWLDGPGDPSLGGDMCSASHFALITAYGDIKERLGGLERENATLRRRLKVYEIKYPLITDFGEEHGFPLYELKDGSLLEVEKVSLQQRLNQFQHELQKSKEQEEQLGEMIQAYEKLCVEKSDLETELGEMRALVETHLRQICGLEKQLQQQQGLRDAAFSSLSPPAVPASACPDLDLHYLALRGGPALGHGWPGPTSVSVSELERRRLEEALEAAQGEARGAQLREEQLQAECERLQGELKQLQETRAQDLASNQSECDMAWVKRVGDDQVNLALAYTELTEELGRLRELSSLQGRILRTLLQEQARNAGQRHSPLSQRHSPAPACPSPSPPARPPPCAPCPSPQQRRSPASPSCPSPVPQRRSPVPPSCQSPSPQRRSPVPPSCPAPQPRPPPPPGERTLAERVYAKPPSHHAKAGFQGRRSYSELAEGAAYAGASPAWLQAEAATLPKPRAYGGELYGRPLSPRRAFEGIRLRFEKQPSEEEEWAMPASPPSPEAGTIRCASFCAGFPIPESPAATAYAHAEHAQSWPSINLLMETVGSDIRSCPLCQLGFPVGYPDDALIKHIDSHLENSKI
HA-Tbkbp1 Y298A (A2A9T0-2, form named): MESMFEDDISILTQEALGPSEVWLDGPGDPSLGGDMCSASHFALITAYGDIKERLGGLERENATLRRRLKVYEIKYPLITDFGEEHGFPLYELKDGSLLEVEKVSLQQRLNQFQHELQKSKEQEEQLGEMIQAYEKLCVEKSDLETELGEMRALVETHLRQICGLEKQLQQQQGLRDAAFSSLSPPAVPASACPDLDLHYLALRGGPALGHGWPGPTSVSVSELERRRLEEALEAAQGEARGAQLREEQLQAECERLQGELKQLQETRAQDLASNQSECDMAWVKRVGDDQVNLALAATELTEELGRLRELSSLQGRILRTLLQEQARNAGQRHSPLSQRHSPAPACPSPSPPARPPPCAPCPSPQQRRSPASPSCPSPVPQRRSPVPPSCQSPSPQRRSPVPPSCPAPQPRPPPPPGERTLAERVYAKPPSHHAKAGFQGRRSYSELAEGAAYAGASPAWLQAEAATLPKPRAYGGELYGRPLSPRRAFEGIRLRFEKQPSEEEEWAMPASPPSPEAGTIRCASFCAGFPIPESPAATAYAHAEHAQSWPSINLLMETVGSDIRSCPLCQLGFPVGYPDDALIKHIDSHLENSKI

Assays:
[1] = biological target: T1, Ulk1, endogenous in NKT hybridoma cells (mouse (endogenous in NKT1.2 hybridoma)) (UniProt O70405); assay: co-IP; endogenous proteins, lysates of NKT hybridoma cells (control shRNA or Tbkbp1 shRNA), untreated or stimulated with IL-15 (rapamycin in one panel); IP with anti-FIP200 or anti-Ulk1, control IgG as negative control; immunoblot
T1 sequence: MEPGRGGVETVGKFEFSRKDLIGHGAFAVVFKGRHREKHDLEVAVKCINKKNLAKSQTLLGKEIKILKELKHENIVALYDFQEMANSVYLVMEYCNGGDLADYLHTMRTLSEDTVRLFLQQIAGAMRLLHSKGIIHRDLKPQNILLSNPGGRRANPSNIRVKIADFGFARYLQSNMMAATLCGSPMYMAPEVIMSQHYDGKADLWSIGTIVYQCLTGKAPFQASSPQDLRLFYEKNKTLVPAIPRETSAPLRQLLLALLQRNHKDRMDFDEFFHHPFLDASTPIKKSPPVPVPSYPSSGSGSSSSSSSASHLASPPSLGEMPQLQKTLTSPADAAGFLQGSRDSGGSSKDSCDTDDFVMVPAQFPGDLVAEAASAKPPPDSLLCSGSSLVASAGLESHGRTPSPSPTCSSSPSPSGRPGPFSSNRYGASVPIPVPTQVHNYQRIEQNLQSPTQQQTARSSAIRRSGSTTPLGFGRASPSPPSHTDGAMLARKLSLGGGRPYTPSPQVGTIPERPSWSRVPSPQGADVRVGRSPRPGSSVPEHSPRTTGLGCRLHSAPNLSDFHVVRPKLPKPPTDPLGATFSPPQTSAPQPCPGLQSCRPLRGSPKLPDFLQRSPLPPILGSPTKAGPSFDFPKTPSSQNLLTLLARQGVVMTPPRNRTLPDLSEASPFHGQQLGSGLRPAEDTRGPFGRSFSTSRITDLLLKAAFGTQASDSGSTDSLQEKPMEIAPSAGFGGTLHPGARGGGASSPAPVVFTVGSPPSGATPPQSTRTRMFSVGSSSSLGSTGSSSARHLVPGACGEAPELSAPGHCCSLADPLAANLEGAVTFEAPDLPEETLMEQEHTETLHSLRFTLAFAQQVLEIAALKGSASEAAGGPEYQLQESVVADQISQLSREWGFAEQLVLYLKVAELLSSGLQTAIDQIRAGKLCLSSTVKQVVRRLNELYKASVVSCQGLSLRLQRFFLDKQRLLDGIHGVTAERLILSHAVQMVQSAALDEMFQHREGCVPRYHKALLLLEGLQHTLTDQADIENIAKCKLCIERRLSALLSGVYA

[2] = biological target: T2, Myc-Ulk1 (UNC51-like kinase 1) (UniProt O70405); assay: co-IP; lysates of HEK293 cells transfected with the indicated expression vectors (HA-Tbkbp1 or its mutants, Myc-Ulk1, 3xFLAG-FIP200, Flag-Ankrd28); immunoblot
T2 sequence: T1 sequence

3xFLAG-FIP200 = 3xFLAG-FIP200 (UniProt Q8TDY2); assay: as above
[3] = biological target: FIP200, endogenous in NKT hybridoma cells (mouse (endogenous in NKT1.2 hybridoma)) (UniProt Q9ESK9); assay: co-IP; endogenous proteins, lysates of NKT hybridoma cells (control shRNA or Tbkbp1 shRNA), untreated or stimulated with IL-15 (rapamycin in one panel); IP with anti-FIP200 or anti-Ulk1, control IgG as negative control; immunoblot
[4] = biological target: HA-Tbkbp1 (TBK-binding protein 1, mouse, wild type) (mouse) (UniProt A2A9T0); assay: co-IP; lysates of HEK293 cells transfected with the indicated expression vectors (HA-Tbkbp1 or its mutants, Myc-Ulk1, 3xFLAG-FIP200, Flag-Ankrd28); immunoblot

Molecule: FIP200, endogenous in NKT hybridoma cells (from UniProt Q9ESK9 1-1588)
- binding [1]: binds

Molecule: HA-Tbkbp1 1-330 (truncation mutant) (from UniProt A2A9T0-2 1-330) (domain or fragment)
- binding [2]: binds

Molecule: HA-Tbkbp1 Y298A (from UniProt A2A9T0-2 1-596)
- binding [2]: binds

Molecule: Tbkbp1, endogenous in NKT hybridoma cells (from UniProt A2A9T0-2 1-596)
- binding [3]: binds
- binding [1]: binds

The remaining lines, values ahead:

- binding (3xFLAG-FIP200): binds
- binding [2]: binds
Molecule: HA-Tbkbp1 (TBK-binding protein 1, mouse, wild type) (from UniProt A2A9T0-2 1-596)

- binding [4]: binds
B1: Flag-tagged Ankrd28 (protein, UniProt O15084 1-1053)
chain: MAFLKLRDQPSLVQAIFNGDPDEVRALIFKKEDVNFQDNEKRTPLHAAAYLGDAEIIELLILSGARVNAKDSKWLTPLHRAVASCSEEAVQVLLKHSADVNARDKNWQTPLHIAAANKAVKCAEALVPLLSNVNVSDRAGRTALHHAAFSGHGEMVKLLLSRGANINAFDKKDRRAIHWAAYMGHIEVVKLLVSHGAEVTCKDKKSYTPLHAAASSGMISVVKYLLDLGVDMNEPNAYGNTPLHVACYNGQDVVVNELIDCGAIVNQKNEKGFTPLHFAAASTHGALCLELLVGNGADVNMKSKDGKTPLHMTALHGRFSRSQTIIQSGAVIDCEDKNGNTPLHIAARYGHELLINTLITSGADTAKRGIHGMFPLHLAALSGFSDCCRKLLSSGFDIDTPDDFGRTCLHAAAAGGNLECLNLLLNTGADFNKKDKFGRSPLHYAAANCNYQCLFALVGSGASVNDLDERGCTPLHYAATSDTDGKCLEYLLRNDANPGIRDKQGYNAVHYSAAYGHRLCLQLIASETPLDVLMETSGTDMLSDSDNRATISPLHLAAYHGHHQALEVLVQSLLDLDVRNSSGRTPLDLAAFKGHVECVDVLINQGASILVKDYILKRTPIHAAATNGHSECLRLLIGNAEPQNAVDIQDGNGQTPLMLSVLNGHTDCVYSLLNKGANVDAKDKWGRTALHRGAVTGHEECVDALLQHGAKCLLRDSRGRTPIHLSAACGHIGVLGALLQSAASMDANPATADNHGYTALHWACYNGHETCVELLLEQEVFQKTEGNAFSPLHCAVINDNEGAAEMLIDTLGASIVNATDSKGRTPLHAAAFTDHVECLQLLLSHNAQVNSVDSTGKTPLMMAAENGQTNTVEMLVSSASAELTLQDNSKNTALHLACSKGHETSALLILEKITDRNLINATNAALQTPLHVAARNGLTMVVQELLGKGASVLAVDENGYTPALACAPNKDVADCLALILATMMPVSSSSPLSSLTFNAINRYTNTSKTVSFEALPIMRNEPSSYCSFNNIGGEQEYLYTDVDELNDSDSETY
